Assay results: patent publication US20230022157A1 (Achillion Pharmaceuticals, Inc., priority 2018, published 2023)

Amino acid sequences for entries named in this document (tags omitted). Residues count along the entry.
UniProt P00746, 26-253 limits assumed: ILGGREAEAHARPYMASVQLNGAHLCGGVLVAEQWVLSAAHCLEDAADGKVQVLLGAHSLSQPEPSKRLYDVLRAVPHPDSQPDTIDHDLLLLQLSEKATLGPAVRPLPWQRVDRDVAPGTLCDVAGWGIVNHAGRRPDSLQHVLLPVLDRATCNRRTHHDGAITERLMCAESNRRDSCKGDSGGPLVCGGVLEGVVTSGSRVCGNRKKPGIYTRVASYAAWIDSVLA

Target: Human Factor D (Homo sapiens, UniProt P00746)
Assay: Human Factor D Assay
Conditions: read-out: IC50 (Stars); Human Factor D 80 nM, substrate Z-L-Lys-SBzl; Table 2

CC(=O)c1cn(CC(=O)N2[C@H]3CC[C@H](C3)[C@H]2C(=O)Nc2nc(C(F)(F)F)ccc2C)c2c(C)cc(-c3cnc4cc(C)nn4c3)cc12
IC50: < 1 µM

The match of structure and compound is tentative.
